This is an account of results in US20140050738A1 (CANCER RESEARCH TECHNOLOGY, published 2014).

Protein sequences, listed by entry. Tags and fused reporters are not part of them. Lines headed by an entry give the natural chain unless they say otherwise; changes in a name come on top.
UniProt P78536: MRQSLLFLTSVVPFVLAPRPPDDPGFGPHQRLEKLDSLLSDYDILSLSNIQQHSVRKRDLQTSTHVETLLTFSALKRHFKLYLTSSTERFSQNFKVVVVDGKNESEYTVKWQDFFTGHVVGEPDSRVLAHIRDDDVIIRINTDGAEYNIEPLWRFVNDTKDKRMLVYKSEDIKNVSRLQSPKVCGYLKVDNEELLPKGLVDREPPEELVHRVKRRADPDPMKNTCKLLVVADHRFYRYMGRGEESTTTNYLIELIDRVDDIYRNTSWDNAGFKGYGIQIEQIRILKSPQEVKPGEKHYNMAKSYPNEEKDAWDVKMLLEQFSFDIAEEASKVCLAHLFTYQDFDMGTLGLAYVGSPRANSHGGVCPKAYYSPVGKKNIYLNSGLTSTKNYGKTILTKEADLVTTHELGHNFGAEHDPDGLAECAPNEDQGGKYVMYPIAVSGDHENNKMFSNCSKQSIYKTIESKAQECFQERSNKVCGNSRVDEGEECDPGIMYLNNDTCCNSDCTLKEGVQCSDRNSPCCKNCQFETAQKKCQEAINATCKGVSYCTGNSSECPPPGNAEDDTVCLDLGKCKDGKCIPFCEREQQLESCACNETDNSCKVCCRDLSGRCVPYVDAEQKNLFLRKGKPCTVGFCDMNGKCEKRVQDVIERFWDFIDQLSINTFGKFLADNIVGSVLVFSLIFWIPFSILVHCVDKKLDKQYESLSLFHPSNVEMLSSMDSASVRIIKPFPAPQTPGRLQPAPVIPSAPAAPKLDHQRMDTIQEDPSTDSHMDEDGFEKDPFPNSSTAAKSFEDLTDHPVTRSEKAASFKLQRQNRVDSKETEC

Results are given in words; binding and its absence hold for the method and conditions named. Some entries that bind do so weakly or less than the wild type.

For test [1], the target named is recombinant human TACE ectodomain (Arg215-Arg651) (human) (UniProt P78536). The test is described as follows: competition ELISA: immobilised TACE ectodomain pre-incubated with titrated N-TIMP-3, then probed with D1(A12) FAb [panel B]. A general note: An ELISA detects its analyte on a solid surface through an enzyme-linked reagent.
Test [2] concerns the target recombinant human TACE catalytic domain (Arg215-Val477-GlySer-His6) (human) (UniProt P78536). The test is described as follows: ELISA on immobilised catalytic domain.

B1: N-TIMP-3 (other, UniProt P35625 24-144, looked up)
chain: CTCSPSHPQDAFCNSDIVIRAKVVGKKLVKEGPFGTLVYTIKQMKMYRGFTKMPHVQYIHTEASESLCGLKLEVNKYQYLLTGRVYDGKMYTGLCNFVERWDQLTLSQRKGLNYRYHLGCN
notes: domain: N-terminal fragment; also called amino-terminal domain of TIMP-3
As to B1, the binding entry in test [1] and in test [2] was “binds” each time.
